Experimental data from doi:10.1101/228767.
These are yes or no findings as the source states them, for the method shown. Binding seen in cells or lysates may run through a third protein. Some entries that bind do so weakly or less than the wild type. Tags and fused reporters may be left off the sequences shown.

By UniProt entry, the sequences of proteins in these tests, tags left out.
UniProt Q9BXL6: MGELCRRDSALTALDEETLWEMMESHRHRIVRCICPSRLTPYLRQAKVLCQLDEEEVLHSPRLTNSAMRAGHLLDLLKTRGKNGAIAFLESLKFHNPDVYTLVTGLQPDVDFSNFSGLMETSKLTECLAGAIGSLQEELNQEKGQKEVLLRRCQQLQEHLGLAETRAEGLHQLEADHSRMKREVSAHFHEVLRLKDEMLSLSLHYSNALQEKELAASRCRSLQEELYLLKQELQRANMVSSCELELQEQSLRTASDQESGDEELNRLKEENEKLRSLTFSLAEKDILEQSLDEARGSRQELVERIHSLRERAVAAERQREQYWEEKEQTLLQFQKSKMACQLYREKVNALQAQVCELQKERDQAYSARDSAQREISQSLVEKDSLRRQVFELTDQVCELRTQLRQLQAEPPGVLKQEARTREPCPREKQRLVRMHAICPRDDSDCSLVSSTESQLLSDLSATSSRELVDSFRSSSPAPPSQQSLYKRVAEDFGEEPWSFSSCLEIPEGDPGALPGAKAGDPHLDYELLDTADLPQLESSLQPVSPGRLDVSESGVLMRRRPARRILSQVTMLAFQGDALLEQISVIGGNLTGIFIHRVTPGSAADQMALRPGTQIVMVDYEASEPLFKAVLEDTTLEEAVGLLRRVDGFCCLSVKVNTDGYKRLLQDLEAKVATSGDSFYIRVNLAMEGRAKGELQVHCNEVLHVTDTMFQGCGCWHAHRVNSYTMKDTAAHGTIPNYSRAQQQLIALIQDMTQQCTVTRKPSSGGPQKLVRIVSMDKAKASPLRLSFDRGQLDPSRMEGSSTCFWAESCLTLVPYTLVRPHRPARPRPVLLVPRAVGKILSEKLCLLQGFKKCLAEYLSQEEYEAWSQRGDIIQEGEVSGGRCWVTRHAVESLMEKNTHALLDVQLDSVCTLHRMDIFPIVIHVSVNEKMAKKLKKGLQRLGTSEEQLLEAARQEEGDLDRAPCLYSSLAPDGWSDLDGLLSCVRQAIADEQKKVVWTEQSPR

Tests used:
Experiment in all cases: co-IP
[1] = molecular target: T1, Flag-tagged CARD9 (human) (UniProt Q9H257)
T1 sequence: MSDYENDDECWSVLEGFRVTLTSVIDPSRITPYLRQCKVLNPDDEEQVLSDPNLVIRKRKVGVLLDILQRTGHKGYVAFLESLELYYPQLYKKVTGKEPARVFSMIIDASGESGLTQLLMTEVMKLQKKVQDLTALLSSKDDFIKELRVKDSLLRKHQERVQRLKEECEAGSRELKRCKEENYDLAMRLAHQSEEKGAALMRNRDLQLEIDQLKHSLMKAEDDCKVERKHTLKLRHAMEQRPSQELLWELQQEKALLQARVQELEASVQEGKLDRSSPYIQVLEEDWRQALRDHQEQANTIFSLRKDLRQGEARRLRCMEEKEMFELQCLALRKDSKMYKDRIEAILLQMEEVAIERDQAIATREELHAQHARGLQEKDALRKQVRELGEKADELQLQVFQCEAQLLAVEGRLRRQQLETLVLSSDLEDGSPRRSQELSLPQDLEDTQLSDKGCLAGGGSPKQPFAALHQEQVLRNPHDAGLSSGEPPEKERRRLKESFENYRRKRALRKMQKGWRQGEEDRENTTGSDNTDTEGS

[2] = molecular target: T2, Flag-tagged CARD11 (human) (UniProt Q9BXL7)
T2 sequence: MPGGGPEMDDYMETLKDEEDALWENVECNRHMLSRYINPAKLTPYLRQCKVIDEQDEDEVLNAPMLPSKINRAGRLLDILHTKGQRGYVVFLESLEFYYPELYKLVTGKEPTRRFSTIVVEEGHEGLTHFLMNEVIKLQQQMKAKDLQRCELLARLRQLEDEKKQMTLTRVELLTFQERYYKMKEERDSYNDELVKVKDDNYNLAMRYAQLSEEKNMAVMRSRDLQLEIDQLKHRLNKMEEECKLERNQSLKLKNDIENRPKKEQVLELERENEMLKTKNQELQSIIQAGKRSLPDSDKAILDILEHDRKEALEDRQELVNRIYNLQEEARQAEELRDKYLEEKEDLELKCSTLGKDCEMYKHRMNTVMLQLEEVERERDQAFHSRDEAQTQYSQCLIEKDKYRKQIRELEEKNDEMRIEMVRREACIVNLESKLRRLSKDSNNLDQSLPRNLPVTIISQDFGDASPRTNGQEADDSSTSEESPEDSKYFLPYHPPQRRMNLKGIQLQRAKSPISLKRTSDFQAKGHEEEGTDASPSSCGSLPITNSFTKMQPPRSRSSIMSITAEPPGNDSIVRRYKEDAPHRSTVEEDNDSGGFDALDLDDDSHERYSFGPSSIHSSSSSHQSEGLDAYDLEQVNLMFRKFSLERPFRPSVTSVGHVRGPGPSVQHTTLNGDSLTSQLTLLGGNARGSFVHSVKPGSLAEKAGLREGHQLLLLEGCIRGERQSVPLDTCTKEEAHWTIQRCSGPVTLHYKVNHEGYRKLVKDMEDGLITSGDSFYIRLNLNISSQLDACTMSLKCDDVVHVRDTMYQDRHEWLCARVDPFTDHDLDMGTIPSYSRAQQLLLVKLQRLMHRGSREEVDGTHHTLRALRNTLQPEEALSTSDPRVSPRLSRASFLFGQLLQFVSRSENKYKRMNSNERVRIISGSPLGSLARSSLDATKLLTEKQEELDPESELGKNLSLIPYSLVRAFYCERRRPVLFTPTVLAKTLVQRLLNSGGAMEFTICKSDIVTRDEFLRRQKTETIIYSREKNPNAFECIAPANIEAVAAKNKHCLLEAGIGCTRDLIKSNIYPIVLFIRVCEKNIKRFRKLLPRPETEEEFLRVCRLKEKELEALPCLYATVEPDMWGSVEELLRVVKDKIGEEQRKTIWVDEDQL

[3] = molecular target: T3, Flag-tagged CARD10 (human) (UniProt Q9BWT7)
T3 sequence: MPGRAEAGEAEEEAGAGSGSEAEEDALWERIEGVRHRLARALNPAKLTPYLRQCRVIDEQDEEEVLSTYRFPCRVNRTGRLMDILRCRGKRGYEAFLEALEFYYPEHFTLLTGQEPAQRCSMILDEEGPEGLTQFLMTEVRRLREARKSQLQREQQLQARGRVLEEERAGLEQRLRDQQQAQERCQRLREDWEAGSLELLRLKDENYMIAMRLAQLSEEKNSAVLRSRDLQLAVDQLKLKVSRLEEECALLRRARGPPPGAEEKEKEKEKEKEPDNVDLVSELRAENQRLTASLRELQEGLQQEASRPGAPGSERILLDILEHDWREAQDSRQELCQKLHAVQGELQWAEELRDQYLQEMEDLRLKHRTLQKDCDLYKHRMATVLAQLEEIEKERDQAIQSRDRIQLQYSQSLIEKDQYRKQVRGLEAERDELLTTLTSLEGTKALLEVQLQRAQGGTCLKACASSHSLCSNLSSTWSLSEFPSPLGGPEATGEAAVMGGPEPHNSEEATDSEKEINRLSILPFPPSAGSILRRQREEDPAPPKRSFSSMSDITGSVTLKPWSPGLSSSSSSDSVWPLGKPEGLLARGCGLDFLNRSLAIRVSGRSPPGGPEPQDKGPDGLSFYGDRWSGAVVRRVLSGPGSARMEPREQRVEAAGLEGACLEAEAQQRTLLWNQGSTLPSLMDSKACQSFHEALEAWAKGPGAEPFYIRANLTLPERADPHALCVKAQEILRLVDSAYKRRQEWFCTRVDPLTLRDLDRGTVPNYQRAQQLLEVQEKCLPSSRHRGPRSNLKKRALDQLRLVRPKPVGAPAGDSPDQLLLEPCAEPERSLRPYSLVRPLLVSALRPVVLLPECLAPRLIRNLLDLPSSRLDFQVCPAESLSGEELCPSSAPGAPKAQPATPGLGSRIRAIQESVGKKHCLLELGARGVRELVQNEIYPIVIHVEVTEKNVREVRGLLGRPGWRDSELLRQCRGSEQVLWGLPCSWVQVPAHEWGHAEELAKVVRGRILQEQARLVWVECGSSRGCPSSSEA

For “un-tagged CARD14 (from UniProt Q9BXL6 1-1004)”, the binding [1] was “no binding”, the binding [2] was “binds” and the binding [3] was “binds”.
